No constants are given. Whether binding was seen depends on the method and setting. In cells and extracts the contact can be indirect.

The chains behind the UniProt entries cited, without tags or fusion partners. Where a name states a change or a piece, a line headed by the entry shows the natural chain unless it says otherwise. A line that says so, or that is headed by a name, gives the form on record, which may keep a tag or linker. Residues count along the entry.
UniProt P28023: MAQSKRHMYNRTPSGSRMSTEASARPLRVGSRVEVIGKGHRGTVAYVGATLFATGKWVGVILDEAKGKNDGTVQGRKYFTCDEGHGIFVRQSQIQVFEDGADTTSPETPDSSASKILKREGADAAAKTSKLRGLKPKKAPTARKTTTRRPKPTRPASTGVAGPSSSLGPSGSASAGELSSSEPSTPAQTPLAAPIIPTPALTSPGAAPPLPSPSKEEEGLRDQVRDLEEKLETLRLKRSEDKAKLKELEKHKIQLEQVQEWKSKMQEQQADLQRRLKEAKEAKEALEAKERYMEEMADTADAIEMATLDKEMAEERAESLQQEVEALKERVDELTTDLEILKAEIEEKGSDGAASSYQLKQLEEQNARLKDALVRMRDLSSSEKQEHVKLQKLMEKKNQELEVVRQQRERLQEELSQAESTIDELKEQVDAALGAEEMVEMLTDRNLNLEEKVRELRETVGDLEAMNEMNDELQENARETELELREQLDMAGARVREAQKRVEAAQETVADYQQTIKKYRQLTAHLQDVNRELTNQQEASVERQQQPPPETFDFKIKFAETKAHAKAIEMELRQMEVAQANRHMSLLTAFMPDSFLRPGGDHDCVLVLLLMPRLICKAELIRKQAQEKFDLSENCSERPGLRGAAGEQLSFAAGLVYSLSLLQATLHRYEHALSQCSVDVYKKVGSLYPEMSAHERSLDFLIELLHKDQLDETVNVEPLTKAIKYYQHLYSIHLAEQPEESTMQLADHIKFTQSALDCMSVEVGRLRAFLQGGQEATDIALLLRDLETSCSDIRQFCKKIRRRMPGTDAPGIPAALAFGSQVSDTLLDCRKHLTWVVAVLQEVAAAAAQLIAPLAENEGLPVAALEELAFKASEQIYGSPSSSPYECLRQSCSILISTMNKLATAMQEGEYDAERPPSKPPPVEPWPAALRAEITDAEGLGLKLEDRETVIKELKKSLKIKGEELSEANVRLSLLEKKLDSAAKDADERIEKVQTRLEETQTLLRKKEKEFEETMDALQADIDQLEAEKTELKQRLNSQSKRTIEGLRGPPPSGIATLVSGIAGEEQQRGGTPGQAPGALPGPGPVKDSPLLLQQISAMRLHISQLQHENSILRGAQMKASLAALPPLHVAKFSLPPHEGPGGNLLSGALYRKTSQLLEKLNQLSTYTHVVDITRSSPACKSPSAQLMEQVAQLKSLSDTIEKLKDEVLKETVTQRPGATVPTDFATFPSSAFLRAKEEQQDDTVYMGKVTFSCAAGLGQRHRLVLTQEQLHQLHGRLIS
AviHA-tagged p150^Glued N fragment: residues 1-490 of P28023
GST-p150^Glued C: residues 490-1278 of P28023
GST-p150^Glued C2: residues 1049-1278 of P28023
UniProt P63010: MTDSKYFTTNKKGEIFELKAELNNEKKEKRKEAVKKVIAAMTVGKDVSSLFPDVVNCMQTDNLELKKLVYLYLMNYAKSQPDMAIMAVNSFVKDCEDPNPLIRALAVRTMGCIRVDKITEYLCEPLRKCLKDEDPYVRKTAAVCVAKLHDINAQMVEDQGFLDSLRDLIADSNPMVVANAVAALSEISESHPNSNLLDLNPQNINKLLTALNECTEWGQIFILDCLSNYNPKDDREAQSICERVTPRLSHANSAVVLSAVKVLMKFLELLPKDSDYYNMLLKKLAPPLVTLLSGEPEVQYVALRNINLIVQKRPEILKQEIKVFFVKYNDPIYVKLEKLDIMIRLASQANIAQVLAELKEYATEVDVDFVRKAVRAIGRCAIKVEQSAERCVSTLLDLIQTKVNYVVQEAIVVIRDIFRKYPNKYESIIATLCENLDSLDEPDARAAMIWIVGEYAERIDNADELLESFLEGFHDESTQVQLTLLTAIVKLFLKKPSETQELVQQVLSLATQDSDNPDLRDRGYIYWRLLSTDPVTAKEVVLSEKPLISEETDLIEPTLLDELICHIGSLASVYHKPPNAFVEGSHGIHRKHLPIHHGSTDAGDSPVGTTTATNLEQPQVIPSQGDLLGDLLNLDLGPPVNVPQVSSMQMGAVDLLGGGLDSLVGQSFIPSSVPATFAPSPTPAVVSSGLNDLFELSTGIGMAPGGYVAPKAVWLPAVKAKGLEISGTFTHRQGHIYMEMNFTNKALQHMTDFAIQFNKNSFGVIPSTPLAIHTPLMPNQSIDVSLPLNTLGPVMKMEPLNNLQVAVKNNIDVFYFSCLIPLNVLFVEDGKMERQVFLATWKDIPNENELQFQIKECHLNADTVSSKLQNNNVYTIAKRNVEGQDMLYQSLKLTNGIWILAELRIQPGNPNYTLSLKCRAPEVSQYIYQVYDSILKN

The values that follow come from article doi:10.1101/2022.06.19.496704.

What all share (assay): pull-down
Experiment [1] has as its target AviHA-tagged p150^Glued N fragment (aa 1-490) (UniProt P28023).
For experiment [2], the target named is GST-p150^Glued C2 (aa 1049-1278) (UniProt P28023).
Experiment [3] has as its target GST-p150^Glued C (aa 490-1278) (UniProt P28023).

For “His6-AP-2β appendage domain (from UniProt P63010) (domain or fragment)”, the binding entry in experiment [1] is listed as “no binding (tested: 0.2 mg/ml)”; in experiment [2], “no binding”; in experiment [3], “no binding”.
